Values of other authors in patent US20060079493A1, “Methods for treating genetically- defined proliferative disorders with hsp90 inhibitors” (priority 2001, published 2006).
At least one compound was matched to its structure with a doubt left.

How the values were obtained:
v-src protein = settings: within 6 hours; Rous sarcoma virus-transformed 3T3 fibroblasts; cited from earlier work
mutant p53 protein = settings: following treatment; cited from earlier work

For `COC1=C2C[C@@H](C)C[C@H](OC)[C@H](O)[C@@H](C)/C=C(\C)[C@H](OC(N)=O)[C@@H](OC)/C=C\C=C(/C)C(=O)NC(=CC1=O)C2=O` [geldanamycin], the v-src protein degraded (v-src protein) is given as ~100% and the “mutant p53 protein degradation in cells” value (mutant p53 protein) is given as “degraded”.
